Assay results reported in publication PMC3197616.
Construct, isoform or probe ends are uncertain for at least one entry.

Tested on: FoxO1
Test: EMSA
Conditions: 10 mM Tris-HCl pH 7.5, 1 mM MgCl2, 5 mM DTT, 40 mM KCl, 0.5% glycerol, 1 mg/mL BSA, 1% Ficoll, room temperature, 1 h, Tris-borate EDTA polyacrylamide gel, recombinant protein, protein details: His10, label: SYBR Gold stain in EMSA, 5'-FAM version also made

Does “TTAGCTCCTGTCCCAGTCCATCACCACGGGACAAACATAGTAGAAAACCTGATCCCTTTACCCCCTTCCACCCACGGTTTGTGTAGAGCTCACAAGCAAAACAAACTTATTTTGAACACTGGGGTCCTAGCACGCTGCCCTGACAATCATTAACCTGTGCCGCACAGCCAGCCCTTCATA (double strand) [IGFBP1 promoter 180 bp amplicon (-204 to -25)]” bind (FoxO1:DNA 1.5:1, 1:1 and 2:1 complexes, residual free DNA)?
Result: binds

Does “TTAGCTCCTGTCCCAGTCCATCACCACGGGACAAACATAGTAGAAAACCTGATCCCTTTACCCCCTTCCACCCACGGTTTGTGTAGAGCTCACAAGCAAAACAAACTTATTTTGAACACTGGGGTCCTAGCACGCTGCCCTGACAATCATTAACCTGTGCCGCACAGCCAGCCCTTCATA (double strand) [IGFBP1 promoter 180 bp amplicon (-204 to -25)]” bind (FoxO1:DNA 3:1, nearly complete depletion of free DNA, more 2:1 complex)?
Result: binds
